The supplement of paper PMC10849652
The other results are listed elsewhere or left out.

Sequences of proteins named here, by UniProt entry; tags and fusion partners are left off. A change or cut given only in a name is not applied to a line headed by its entry.
UniProt Q15366, whole entry, looked up: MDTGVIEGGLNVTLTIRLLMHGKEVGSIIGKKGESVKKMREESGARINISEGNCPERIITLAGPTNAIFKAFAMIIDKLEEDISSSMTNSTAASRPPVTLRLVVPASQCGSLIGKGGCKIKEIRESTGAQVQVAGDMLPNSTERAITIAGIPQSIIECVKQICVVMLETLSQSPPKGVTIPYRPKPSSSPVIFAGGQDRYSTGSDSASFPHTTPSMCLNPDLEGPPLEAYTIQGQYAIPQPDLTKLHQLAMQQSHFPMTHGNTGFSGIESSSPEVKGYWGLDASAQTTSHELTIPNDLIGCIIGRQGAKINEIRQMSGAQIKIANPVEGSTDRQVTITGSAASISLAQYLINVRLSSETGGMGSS
UniProt Q9Y5B6: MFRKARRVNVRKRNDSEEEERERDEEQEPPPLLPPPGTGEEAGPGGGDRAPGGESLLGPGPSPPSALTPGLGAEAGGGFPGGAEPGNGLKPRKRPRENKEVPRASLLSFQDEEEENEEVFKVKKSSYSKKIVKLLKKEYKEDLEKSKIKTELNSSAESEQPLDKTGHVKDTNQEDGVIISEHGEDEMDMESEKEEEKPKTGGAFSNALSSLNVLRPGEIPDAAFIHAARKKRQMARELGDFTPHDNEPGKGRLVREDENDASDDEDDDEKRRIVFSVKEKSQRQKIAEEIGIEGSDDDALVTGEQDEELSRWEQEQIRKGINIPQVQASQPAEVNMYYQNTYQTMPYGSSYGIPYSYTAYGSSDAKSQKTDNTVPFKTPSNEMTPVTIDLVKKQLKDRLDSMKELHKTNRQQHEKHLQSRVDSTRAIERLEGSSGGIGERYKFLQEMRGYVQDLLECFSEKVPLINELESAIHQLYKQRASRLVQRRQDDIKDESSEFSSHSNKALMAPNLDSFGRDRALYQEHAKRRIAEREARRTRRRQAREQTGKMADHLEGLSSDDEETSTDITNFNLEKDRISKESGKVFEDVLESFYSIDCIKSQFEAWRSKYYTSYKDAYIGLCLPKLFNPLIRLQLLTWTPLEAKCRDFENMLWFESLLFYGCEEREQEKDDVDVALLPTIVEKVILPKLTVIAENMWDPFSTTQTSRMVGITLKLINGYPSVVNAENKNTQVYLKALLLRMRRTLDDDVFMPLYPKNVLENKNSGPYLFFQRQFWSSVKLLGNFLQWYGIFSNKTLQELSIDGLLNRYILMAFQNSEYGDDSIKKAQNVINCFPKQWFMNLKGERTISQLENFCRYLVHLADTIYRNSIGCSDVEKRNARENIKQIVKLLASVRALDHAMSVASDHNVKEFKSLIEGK
UniProt O60925, whole entry, looked up: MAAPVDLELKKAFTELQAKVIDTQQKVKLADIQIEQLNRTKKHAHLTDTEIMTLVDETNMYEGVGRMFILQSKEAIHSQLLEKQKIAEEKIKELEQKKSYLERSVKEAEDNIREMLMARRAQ
UniProt O00330, whole entry, looked up: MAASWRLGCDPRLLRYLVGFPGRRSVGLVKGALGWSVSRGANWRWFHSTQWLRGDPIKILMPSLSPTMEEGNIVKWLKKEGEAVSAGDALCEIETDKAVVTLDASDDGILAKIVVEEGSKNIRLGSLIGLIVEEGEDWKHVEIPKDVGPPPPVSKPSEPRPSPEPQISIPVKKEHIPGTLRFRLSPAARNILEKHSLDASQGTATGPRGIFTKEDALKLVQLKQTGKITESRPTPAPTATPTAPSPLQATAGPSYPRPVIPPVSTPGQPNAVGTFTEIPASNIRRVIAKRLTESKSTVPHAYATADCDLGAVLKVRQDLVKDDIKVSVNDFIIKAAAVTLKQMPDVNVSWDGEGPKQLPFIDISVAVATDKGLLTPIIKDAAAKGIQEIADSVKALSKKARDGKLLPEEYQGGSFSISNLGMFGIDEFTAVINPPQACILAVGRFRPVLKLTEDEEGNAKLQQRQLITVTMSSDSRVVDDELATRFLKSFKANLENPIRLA
UniProt Q5T2R2: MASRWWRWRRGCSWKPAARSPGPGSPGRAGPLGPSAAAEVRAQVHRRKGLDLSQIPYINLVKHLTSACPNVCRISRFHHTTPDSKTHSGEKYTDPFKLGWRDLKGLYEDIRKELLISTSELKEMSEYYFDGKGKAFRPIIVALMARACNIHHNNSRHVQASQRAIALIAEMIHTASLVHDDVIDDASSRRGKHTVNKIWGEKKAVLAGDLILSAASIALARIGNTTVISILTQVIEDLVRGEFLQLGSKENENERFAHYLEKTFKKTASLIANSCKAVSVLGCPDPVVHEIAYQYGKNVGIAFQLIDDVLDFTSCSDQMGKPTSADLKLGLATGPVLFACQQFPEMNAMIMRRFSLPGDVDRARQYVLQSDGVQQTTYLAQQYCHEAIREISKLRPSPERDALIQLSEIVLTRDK
UniProt P05166: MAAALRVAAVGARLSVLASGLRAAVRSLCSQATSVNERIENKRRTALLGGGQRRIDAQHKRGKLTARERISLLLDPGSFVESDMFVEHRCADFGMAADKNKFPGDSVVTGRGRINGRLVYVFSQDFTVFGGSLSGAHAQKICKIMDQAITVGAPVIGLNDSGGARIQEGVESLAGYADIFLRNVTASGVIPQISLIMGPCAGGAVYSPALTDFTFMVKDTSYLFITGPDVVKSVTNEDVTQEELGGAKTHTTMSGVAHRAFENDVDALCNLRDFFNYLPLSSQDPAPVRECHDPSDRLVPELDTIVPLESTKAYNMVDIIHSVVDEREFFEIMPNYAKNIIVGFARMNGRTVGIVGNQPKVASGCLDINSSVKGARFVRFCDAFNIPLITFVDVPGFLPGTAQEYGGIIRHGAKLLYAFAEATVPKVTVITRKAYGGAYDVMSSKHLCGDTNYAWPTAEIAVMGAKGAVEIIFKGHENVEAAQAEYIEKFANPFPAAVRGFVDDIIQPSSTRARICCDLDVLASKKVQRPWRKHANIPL
UniProt Q99447: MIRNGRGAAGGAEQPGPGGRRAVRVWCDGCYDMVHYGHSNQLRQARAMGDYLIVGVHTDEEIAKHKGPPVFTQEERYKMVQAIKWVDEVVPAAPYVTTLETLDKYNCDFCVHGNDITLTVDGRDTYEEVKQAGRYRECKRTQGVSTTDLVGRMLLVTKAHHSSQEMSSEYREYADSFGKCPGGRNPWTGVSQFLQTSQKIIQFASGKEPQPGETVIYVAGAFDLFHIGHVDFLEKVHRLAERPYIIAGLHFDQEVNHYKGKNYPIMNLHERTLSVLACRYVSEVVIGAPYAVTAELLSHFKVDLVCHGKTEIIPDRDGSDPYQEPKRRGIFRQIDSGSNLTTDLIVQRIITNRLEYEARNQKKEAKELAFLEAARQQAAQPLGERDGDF
UniProt O15067: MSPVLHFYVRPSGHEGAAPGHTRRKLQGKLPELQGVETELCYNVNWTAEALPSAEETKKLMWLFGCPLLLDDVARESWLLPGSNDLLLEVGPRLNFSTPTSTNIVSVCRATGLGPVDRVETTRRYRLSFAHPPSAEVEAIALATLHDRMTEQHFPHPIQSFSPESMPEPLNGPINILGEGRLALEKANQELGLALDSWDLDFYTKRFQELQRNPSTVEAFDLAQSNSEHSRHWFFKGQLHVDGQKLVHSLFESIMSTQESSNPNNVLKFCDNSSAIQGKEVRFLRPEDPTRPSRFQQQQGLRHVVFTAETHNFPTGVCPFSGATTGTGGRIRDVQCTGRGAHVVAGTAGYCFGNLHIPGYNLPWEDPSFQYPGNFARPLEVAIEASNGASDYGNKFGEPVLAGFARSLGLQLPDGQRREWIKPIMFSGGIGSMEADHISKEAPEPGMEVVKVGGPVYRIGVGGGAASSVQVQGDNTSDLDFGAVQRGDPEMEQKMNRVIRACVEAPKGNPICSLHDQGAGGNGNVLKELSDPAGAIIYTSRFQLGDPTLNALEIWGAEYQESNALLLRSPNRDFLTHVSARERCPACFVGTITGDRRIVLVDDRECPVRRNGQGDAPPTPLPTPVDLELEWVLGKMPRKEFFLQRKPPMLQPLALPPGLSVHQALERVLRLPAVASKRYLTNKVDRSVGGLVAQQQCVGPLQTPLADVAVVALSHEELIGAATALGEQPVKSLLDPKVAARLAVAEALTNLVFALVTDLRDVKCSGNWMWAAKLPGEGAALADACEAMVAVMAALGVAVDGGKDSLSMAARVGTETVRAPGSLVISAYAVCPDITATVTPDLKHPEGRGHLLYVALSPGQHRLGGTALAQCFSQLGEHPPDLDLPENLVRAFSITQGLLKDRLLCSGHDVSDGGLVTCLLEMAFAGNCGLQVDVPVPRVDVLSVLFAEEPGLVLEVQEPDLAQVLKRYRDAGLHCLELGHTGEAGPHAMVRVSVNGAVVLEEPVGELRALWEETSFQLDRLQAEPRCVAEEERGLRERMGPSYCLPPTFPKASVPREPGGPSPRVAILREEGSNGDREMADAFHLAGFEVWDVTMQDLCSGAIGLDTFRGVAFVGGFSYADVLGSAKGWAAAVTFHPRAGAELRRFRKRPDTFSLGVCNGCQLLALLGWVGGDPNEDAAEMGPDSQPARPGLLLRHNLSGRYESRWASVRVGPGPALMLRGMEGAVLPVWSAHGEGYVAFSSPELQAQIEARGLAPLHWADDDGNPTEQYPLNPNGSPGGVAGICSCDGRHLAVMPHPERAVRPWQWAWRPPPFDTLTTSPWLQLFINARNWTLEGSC
UniProt P22061: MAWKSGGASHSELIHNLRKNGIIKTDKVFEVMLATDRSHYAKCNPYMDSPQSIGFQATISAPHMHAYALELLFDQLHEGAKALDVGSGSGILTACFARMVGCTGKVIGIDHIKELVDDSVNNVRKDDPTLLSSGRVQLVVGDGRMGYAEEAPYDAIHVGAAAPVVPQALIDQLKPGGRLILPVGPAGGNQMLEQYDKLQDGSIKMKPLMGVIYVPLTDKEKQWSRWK
UniProt Q8NEN9: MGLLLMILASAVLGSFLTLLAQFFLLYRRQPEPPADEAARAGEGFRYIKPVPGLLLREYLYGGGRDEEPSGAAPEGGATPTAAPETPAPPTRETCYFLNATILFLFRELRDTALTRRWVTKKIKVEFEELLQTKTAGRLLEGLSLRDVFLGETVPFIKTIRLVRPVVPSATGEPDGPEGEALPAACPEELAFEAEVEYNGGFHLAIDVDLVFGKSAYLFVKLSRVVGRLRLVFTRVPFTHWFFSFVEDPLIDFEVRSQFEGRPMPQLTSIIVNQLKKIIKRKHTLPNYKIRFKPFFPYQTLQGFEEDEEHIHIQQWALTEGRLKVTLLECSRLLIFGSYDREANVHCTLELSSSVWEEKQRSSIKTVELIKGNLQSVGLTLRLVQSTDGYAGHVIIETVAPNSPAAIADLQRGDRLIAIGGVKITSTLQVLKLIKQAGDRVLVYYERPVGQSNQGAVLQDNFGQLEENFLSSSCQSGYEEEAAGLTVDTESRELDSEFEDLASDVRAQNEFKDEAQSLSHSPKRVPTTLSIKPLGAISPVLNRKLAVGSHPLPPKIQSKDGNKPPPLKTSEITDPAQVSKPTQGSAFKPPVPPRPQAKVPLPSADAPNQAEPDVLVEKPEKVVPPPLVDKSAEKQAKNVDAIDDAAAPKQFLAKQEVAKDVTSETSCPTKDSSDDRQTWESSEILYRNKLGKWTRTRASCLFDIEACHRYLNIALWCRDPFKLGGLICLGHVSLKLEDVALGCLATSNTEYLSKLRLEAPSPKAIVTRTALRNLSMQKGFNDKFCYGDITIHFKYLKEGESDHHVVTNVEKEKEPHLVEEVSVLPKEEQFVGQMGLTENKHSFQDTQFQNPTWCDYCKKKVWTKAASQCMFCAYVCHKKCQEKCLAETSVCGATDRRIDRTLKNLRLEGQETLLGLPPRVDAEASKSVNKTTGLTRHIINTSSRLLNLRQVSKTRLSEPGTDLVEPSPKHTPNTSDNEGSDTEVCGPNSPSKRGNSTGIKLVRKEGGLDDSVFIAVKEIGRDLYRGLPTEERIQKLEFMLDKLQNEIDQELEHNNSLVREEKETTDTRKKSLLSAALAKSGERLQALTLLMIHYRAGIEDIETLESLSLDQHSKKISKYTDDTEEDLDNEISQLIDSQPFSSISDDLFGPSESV
UniProt P57721, whole entry, looked up: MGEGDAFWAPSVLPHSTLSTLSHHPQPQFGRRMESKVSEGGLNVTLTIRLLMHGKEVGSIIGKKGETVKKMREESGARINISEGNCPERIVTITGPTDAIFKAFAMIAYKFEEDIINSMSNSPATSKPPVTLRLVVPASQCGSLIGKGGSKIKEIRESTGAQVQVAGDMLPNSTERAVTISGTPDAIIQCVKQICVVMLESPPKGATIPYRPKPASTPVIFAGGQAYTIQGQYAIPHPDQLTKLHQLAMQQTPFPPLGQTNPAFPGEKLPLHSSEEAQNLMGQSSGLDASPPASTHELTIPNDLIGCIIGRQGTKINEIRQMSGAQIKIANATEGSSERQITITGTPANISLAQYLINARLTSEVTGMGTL
UniProt Q9UHV9, whole entry, looked up: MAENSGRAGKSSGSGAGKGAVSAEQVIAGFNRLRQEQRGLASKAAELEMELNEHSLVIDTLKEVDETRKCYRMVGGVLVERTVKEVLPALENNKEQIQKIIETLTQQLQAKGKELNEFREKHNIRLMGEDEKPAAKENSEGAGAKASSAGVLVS

Tests used:
Test in all cases: log2 fold change, soluble protein after heating vs DMSO (PISA); higher = thermal stabilisation; K562 lysate, 10 uM; active = over 0.2 and 3.5 SD of the protein, either way, in both replicates (recomputed)
nilotinib = compound: Cc1cn(-c2cc(NC(=O)c3ccc(C)c(Nc4nccc(-c5cccnc5)n4)c3)cc(C(F)(F)F)c2)cn1 [nilotinib]
Procedure, shortened: (§1)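 K562 pellets were dounce-homogenised in PBS pH 7.4 with 1 mM MgCl2, and the crude extract at 1 mg/mL protein was treated with 10 μM compound for 30 min. Aliquots were heated for 3 min across 48°C-58°C, pooled, and brought to 0.5% NP-40 at 4°C; soluble protein was the supernatant after 21,000xg for 90 min. Soluble protein was quantified by TMTpro 16plex LC-MS/MS with channel sums equalised, and reported as log2 fold change in thermal stability against DMSO controls, with values from duplicates.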

[1] = compound: Cc1nc(Nc2n[nH]c3c2CN(C(=O)N[C@H](CN(C)C)c2ccccc2)C3(C)C)c2sccc2n1
Procedure, shortened: as §1

dasatinib = compound: Cc1nc(Nc2ncc(C(=O)Nc3c(C)cccc3Cl)s2)cc(N2CCN(CCO)CC2)n1 [dasatinib]
Procedure, shortened: as §1

[2] = compound: Cc1ncc(-c2ccnc(Nc3ccc(S(C)(=O)=O)cc3)n2)n1C(C)C
Procedure, shortened: as §1

[3] = compound: Cn1cc(-c2ccc3c(c2)CCN3C(=O)Cc2cccc(C(F)(F)F)c2)c2c(N)ncnc21
Procedure, shortened: as §1

quisinostat = compound: Cn1cc(CNCC2CCN(c3ncc(C(=O)NO)cn3)CC2)c2ccccc21 [quisinostat]
Procedure, shortened: as §1

tipifarnib = compound: Cn1cncc1[C@@](N)(c1ccc(Cl)cc1)c1ccc2c(c1)c(-c1cccc(Cl)c1)cc(=O)n2C [tipifarnib]
Procedure, shortened: as §1

[4] = compound: NC(=O)Nc1cc(-c2cccc(F)c2)sc1C(=O)N[C@H]1CCCNC1
Procedure, shortened: as §1

[5] = compound: NC(=O)c1cnc(N[C@@H]2CCCC[C@@H]2N)nc1Nc1cccc(-n2nccn2)c1
Procedure, shortened: as §1

[6] = compound: NC1(c2ccc(-c3nc4ccn5c(=O)[nH]nc5c4cc3-c3ccccc3)cc2)CCC1
Procedure, shortened: as §1

[7] = compound: NCC(=O)Nc1ccc(-n2nc(C(F)(F)F)cc2-c2ccc3c(ccc4ccccc43)c2)cc1
Procedure, shortened: as §1

vorinostat = compound: O=C(CCCCCCC(=O)Nc1ccccc1)NO [vorinostat]
Procedure, shortened: as §1

silmitasertib = compound: O=C(O)c1ccc2c(c1)nc(Nc1cccc(Cl)c1)c1ccncc12 [silmitasertib]
Procedure, shortened: as §1

[8] = compound: O=C1NC(=O)C(c2cnc3ccccn23)=C1c1cn2c3c(cc(F)cc13)CN(C(=O)N1CCCCC1)CC2
Procedure, shortened: as §1

entospletinib = compound: c1cn2cc(-c3ccc4cn[nH]c4c3)nc(Nc3ccc(N4CCOCC4)cc3)c2n1 [entospletinib]
Procedure, shortened: as §1

| Target | log2 fold change (nilotinib) | log2 fold change [1] | log2 fold change (dasatinib) | log2 fold change [2] | log2 fold change [3] | log2 fold change (quisinostat) | log2 fold change (tipifarnib) | log2 fold change [4] | log2 fold change [5] | log2 fold change [6] | log2 fold change [7] | log2 fold change (vorinostat) | log2 fold change (silmitasertib) | log2 fold change [8] | log2 fold change (entospletinib) |
| --- | --- | --- | --- | --- | --- | --- | --- | --- | --- | --- | --- | --- | --- | --- | --- |
| PCBP2 isoform 3 (UniProt Q15366) | inactive: 0.019 | inactive: -0.012 | inactive: -0.019 | inactive: 0.015 | inactive: 0.039 | inactive: 0.044 | inactive: 0.005 | inactive: 0 | inactive: 0.005 | inactive: 0.072 | inactive: -0.071 | active: -0.252 | inactive: 0.042 | inactive: -0.035 | inactive: 0.01 |
| PFN1 (UniProt P07737) | inactive: -0.002 | inactive: 0.002 | inactive: 0.022 | inactive: -0.008 | inactive: -0.006 | inactive: 0.008 | inactive: 0.03 | inactive: -0.018 | inactive: -0.018 | inactive: 0.014 | inactive: -0.006 | inactive: 0.083 | inactive: -0.004 | inactive: -0.014 | inactive: 0.006 |
| PAXBP1 (UniProt Q9Y5B6) | inactive: -0.014 | inactive: 0.012 | inactive: -0.046 | inactive: 0.011 | inactive: 0.024 | inactive: -0.041 | inactive: -0.008 | inactive: 0.031 | inactive: 0.023 | inactive: -0.006 | inactive: 0.02 | inactive: -0.146 | inactive: -0.019 | inactive: -0.02 | inactive: -0.043 |
| PFDN1 (UniProt O60925) | inactive: 0.036 | inactive: 0.022 | inactive: 0.021 | inactive: 0.063 | inactive: -0.007 | inactive: 0.068 | inactive: 0.076 | inactive: -0.079 | inactive: -0.044 | inactive: 0.031 | inactive: -0.048 | inactive: 0.192 | inactive: -0.003 | inactive: 0.033 | inactive: -0.089 |
| PDHX (UniProt O00330) | inactive: -0.022 | inactive: 0.001 | inactive: -0.033 | inactive: 0.045 | inactive: 0.001 | inactive: -0.005 | inactive: 0.003 | inactive: -0.001 | inactive: -0.003 | inactive: -0.01 | inactive: 0.026 | inactive: 0.018 | inactive: -0.023 | inactive: -0.012 | inactive: 0.025 |
| PFKP (UniProt Q01813) | inactive: 0.026 | inactive: -0.014 | inactive: 0.012 | inactive: 0.003 | inactive: 0.009 | inactive: 0.024 | inactive: 0.016 | inactive: 0 | inactive: -0.008 | inactive: -0.004 | inactive: 0.004 | inactive: 0.009 | inactive: 0.008 | inactive: 0.03 | inactive: 0.049 |
| PDSS1 (UniProt Q5T2R2) | inactive: -0.075 | inactive: -0.041 | inactive: 0.009 | inactive: -0.012 | inactive: 0.148 | inactive: -0.057 | inactive: 0.072 | inactive: -0.027 | inactive: 0.09 | inactive: -0.073 | inactive: -0.013 | inactive: 0.241 | inactive: -0.044 | inactive: -0.037 | inactive: -0.026 |
| PCNT (UniProt O95613) | inactive: -0.043 | inactive: 0.029 | inactive: -0.049 | inactive: 0.012 | inactive: 0.026 | inactive: -0.072 | inactive: -0.016 | inactive: 0.015 | inactive: 0.032 | inactive: -0.007 | inactive: 0.011 | inactive: -0.012 | inactive: -0.018 | inactive: -0.029 | inactive: -0.028 |
| PGGHG (UniProt Q32M88) | inactive: 0.04 | inactive: -0.045 | inactive: -0.009 | inactive: -0.088 | inactive: -0.004 | inactive: 0.022 | inactive: -0.093 | inactive: -0.014 | inactive: -0.009 | inactive: -0.077 | inactive: -0.011 | inactive: 0.026 | inactive: -0.045 | inactive: -0.035 | inactive: 0 |
| PCCB (UniProt P05166) | inactive: 0.034 | inactive: -0.021 | inactive: 0.007 | inactive: -0.005 | inactive: -0.007 | inactive: 0.006 | inactive: 0.002 | inactive: 0.007 | inactive: 0.005 | inactive: 0.027 | inactive: 0.01 | inactive: 0.062 | inactive: 0.001 | inactive: -0.013 | inactive: 0.005 |
| PEA15 isoform 2 (UniProt Q15121) | inactive: 0.017 | inactive: 0.02 | inactive: 0.011 | inactive: 0.041 | inactive: -0.043 | inactive: 0.012 | inactive: 0.041 | inactive: -0.05 | inactive: 0 | inactive: -0.035 | inactive: -0.061 | inactive: 0.143 | inactive: -0.038 | inactive: 0.011 | inactive: -0.011 |
| PCYT2 isoform 3 (UniProt Q99447) | inactive: -0.033 | inactive: 0.005 | inactive: 0.008 | inactive: 0.006 | inactive: 0.054 | inactive: -0.116 | inactive: -0.03 | inactive: 0.013 | inactive: 0.009 | inactive: -0.066 | inactive: 0.012 | inactive: -0.168 | inactive: 0.019 | inactive: -0.005 | inactive: 0.04 |
| PES1 (UniProt O00541) | inactive: -0.004 | inactive: 0.006 | inactive: 0.016 | inactive: -0.034 | inactive: 0.001 | inactive: -0.067 | inactive: 0.001 | inactive: 0.026 | inactive: 0.015 | inactive: -0.047 | inactive: 0.03 | inactive: -0.193 | inactive: 0.037 | inactive: 0.014 | inactive: -0.015 |
| PFAS (UniProt O15067) | inactive: 0.015 | inactive: -0.023 | inactive: -0.031 | inactive: -0.017 | inactive: 0.008 | inactive: -0.037 | inactive: 0.01 | inactive: 0.01 | inactive: 0.005 | inactive: -0.009 | inactive: 0.029 | active: -0.272 | inactive: 0.022 | inactive: 0.031 | inactive: 0.016 |
| PCGF5 (UniProt Q86SE9) | inactive: 0.023 | inactive: 0.12 | inactive: -0.063 | inactive: 0.023 | inactive: 0.017 | inactive: -0.084 | inactive: -0.089 | inactive: 0.077 | inactive: -0.082 | inactive: 0.012 | inactive: -0.036 | inactive: -0.148 | inactive: 0.038 | inactive: 0.043 | inactive: 0.134 |
| PCMT1 isoform 2 (UniProt P22061) | inactive: 0.04 | inactive: -0.043 | inactive: 0.062 | inactive: -0.016 | inactive: -0.014 | inactive: 0.125 | inactive: 0.042 | inactive: 0 | inactive: -0.001 | inactive: 0.033 | inactive: -0.009 | inactive: -0.023 | inactive: 0.004 | inactive: 0.006 | inactive: 0.006 |
| PDZD8 (UniProt Q8NEN9) | inactive: 0.016 | inactive: 0.011 | inactive: -0.04 | inactive: 0.054 | inactive: -0.03 | inactive: 0.01 | inactive: -0.005 | inactive: 0.006 | inactive: -0.02 | inactive: 0.009 | inactive: 0.088 | inactive: -0.219 | inactive: 0.012 | inactive: -0.063 | inactive: -0.012 |
| PCBP3 (UniProt P57721) | inactive: 0.015 | inactive: -0.022 | inactive: -0.005 | inactive: 0.018 | inactive: -0.025 | inactive: -0.004 | inactive: 0 | inactive: -0.023 | inactive: -0.014 | inactive: 0.012 | inactive: 0.016 | active: -0.371 | inactive: 0.001 | inactive: -0.001 | inactive: 0.016 |
| PDRG1 (UniProt Q9NUG6) | inactive: -0.018 | inactive: -0.015 | inactive: 0.023 | inactive: 0.052 | inactive: 0.046 | inactive: -0.038 | inactive: 0.141 | inactive: -0.015 | inactive: -0.003 | inactive: 0.003 | inactive: -0.084 | inactive: -0.068 | inactive: -0.022 | inactive: 0.008 | inactive: 0.078 |
| PFDN2 (UniProt Q9UHV9) | inactive: -0.011 | inactive: 0.013 | inactive: 0.008 | inactive: -0.045 | inactive: -0.019 | inactive: 0.037 | inactive: 0 | inactive: -0.018 | inactive: -0.028 | inactive: 0.053 | inactive: -0.049 | inactive: 0.098 | inactive: 0.015 | inactive: -0.068 | inactive: 0.007 |
| PGAM4 (UniProt Q8N0Y7) | inactive: -0.001 | inactive: 0.017 | inactive: 0.036 | inactive: -0.003 | inactive: -0.062 | inactive: -0.022 | inactive: 0.039 | inactive: -0.003 | inactive: -0.02 | inactive: -0.009 | inactive: 0.008 | inactive: 0.149 | inactive: -0.029 | inactive: 0.005 | inactive: 0.028 |

Two neighbouring records out of the list so far, for reference:

| Target | log2 fold change (nilotinib) | log2 fold change [1] | log2 fold change (dasatinib) | log2 fold change [2] | log2 fold change [3] | log2 fold change (quisinostat) | log2 fold change (tipifarnib) | log2 fold change [4] | log2 fold change [5] | log2 fold change [6] | log2 fold change [7] | log2 fold change (vorinostat) | log2 fold change (silmitasertib) | log2 fold change [8] | log2 fold change (entospletinib) |
| --- | --- | --- | --- | --- | --- | --- | --- | --- | --- | --- | --- | --- | --- | --- | --- |
| PDSS1 (UniProt Q5T2R2) | inactive: -0.075 | inactive: -0.041 | inactive: 0.009 | inactive: -0.012 | inactive: 0.148 | inactive: -0.057 | inactive: 0.072 | inactive: -0.027 | inactive: 0.09 | inactive: -0.073 | inactive: -0.013 | inactive: 0.241 | inactive: -0.044 | inactive: -0.037 | inactive: -0.026 |
| PCNT (UniProt O95613) | inactive: -0.043 | inactive: 0.029 | inactive: -0.049 | inactive: 0.012 | inactive: 0.026 | inactive: -0.072 | inactive: -0.016 | inactive: 0.015 | inactive: 0.032 | inactive: -0.007 | inactive: 0.011 | inactive: -0.012 | inactive: -0.018 | inactive: -0.029 | inactive: -0.028 |
